Measured values published in PMC5684413.

Legend:
[1] = target: GST-SIRT1 amino (N)-terminal domain (human); assay: pull-down; GST-SIRT1 deletion mutants (100–200 ng) bound on GS4B beads, purified OGT (300 ng), overnight at 4 °C, washed three times with NP40 lysis buffer; both purified
[2] = target: GST-SIRT1 central core domain (human); assay: as above

B1: MBP-fused OGT (enzyme, UniProt O15294 1-1046)
chain: MASSVGNVADSTEPTKRMLSFQGLAELAHREYQAGDFEAAERHCMQLWRQEPDNTGVLLLLSSIHFQCRRLDRSAHFSTLAIKQNPLLAEAYSNLGNVYKERGQLQEAIEHYRHALRLKPDFIDGYINLAAALVAAGDMEGAVQAYVSALQYNPDLYCVRSDLGNLLKALGRLEEAKACYLKAIETQPNFAVAWSNLGCVFNAQGEIWLAIHHFEKAVTLDPNFLDAYINLGNVLKEARIFDRAVAAYLRALSLSPNHAVVHGNLACVYYEQGLIDLAIDTYRRAIELQPHFPDAYCNLANALKEKGSVAEAEDCYNTALRLCPTHADSLNNLANIKREQGNIEEAVRLYRKALEVFPEFAAAHSNLASVLQQQGKLQEALMHYKEAIRISPTFADAYSNMGNTLKEMQDVQGALQCYTRAIQINPAFADAHSNLASIHKDSGNIPEAIASYRTALKLKPDFPDAYCNLAHCLQIVCDWTDYDERMKKLVSIVADQLEKNRLPSVHPHHSMLYPLSHGFRKAIAERHGNLCLDKINVLHKPPYEHPKDLKLSDGRLRVGYVSSDFGNHPTSHLMQSIPGMHNPDKFEVFCYALSPDDGTNFRVKVMAEANHFIDLSQIPCNGKAADRIHQDGIHILVNMNGYTKGARNELFALRPAPIQAMWLGYPGTSGALFMDYIITDQETSPAEVAEQYSEKLAYMPHTFFIGDHANMFPHLKKKAVIDFKSNGHIYDNRIVLNGIDLKAFLDSLPDVKIVKMKCPDGGDNADSSNTALNMPVIPMNTIAEAVIEMINRGQIQITINGFSISNGLATTQINNKAATGEEVPRTIIVTTRSQYGLPEDAIVYCNFNQLYKIDPSTLQMWANILKRVPNSVLWLLRFPAVGEPNIQQYAQNMGLPQNRIIFSPVAPKEEHVRRGQLADVCLDTPLCNGHTTGMDVLWAGTPMVTMPGETLASRVAASQLTCLGCLELIAKNRQEYEDIAVKLGTDLEYLKKVRGKVWKQRISSPLFNTKQYTMELERLYLQMWEHYAAGNKPDHMIKPVEVTESA
- binding [1]: no binding (tested: 300 ng purified protein)
- binding [2]: no binding (tested: 300 ng purified protein)

No constants are given. Whether binding was seen depends on the method and setting. Where a sequence is shown, tags or fusion partners need not be part of it.
